± gives the standard deviation of the averaged measurements. The list shows a part of the results. Most values come without repeats; read them as rough.
These compounds were tested on RAW 264.7 macrophages infected with S. aureus JE2-lux (assay: host macrophage viability (CellTiter-Fluor) relative to DMSO vehicle; higher = more viable host cells). Conditions: 10 µM; treatment time 4 h; gentamicin 50 µg/ml.

Row | Compound | host macrophage viability [%]
1 | Cc1nc2c(ccc3nc(NC(=O)c4ccc(Br)s4)sc32)s1 | 125 ± 14
2 | COc1cc(C2C(C(=O)c3cccs3)=C(O)C(=O)N2c2nncs2)ccc1O (stereo not drawn) | 115
3 | Cc1ccc(C(C)C)c(OCCCN2C(=O)C(=O)c3cccc(C)c32)c1 | 113
4 | Cc1cccc(CNc2ncnc3c2c(C)c(C)n3-c2ccc(Cl)cc2)c1 | 102
5 | CCc1cc2c(N3CCCC(C(=O)Nc4ccc5c(c4)OCCO5)C3)ncnc2s1 (stereo not drawn) | 125
6 | O=C(CN1CCC(n2cnc3cc(F)ccc32)CC1)Nc1nccs1 | 111
7 | Cc1c[nH]c(=O)nc1SCc1ccc([N+](=O)[O-])cc1 | 115
8 | CCOC(=O)c1sc(NC(=O)/C=C/c2ccc([N+](=O)[O-])s2)cc1C | 114.6 ± 1.1
9 | O=C(CSc1ncnc2c1cnn2-c1cccc(Cl)c1)NCc1ccc2c(c1)OCO2 | 114
10 | CCOC(=O)c1cnn(-c2ccc(C(=O)Nc3ccc(C(F)(F)F)cc3)cn2)c1N | 104
11 | COc1cccc2cc(C(=O)NC(C)=O)/c(=N/c3cccc4ccccc34)oc12 | 108 ± 13
12 | CCOC(=O)c1c(SCC(=O)Nc2ccc([N+](=O)[O-])cc2)nc(=O)[nH]c1C | 106
13 | O=C(OCn1nnc2ccccc2c1=O)C(c1ccccc1)c1ccccc1 | 103
14 | COc1ccc(NC(=O)CSc2nc(C)c(C)c(=O)[nH]2)cc1OC | 136
15 | O=C(CCCS(=O)(=O)c1ccccc1)Nc1nc2c(F)cc(F)cc2s1 | 135
16 | O=C(NCCC1CCCCN1S(=O)(=O)c1ccc(F)cc1)C(=O)NCc1ccc2c(c1)OCO2 (stereo not drawn) | 102
17 | O=C(Cn1c(=O)n(Cc2ccco2)c(=O)c2oc3ccccc3c21)Nc1ccc(Cl)cc1 | 116
18 | Cc1ccc(NC(=O)c2cc(S(=O)(=O)N3CCCCC3)ccc2F)cc1C | 123
19 | Cc1cc(N2CCc3ccccc32)nc(-n2cc([N+](=O)[O-])cn2)n1 | 109
20 | COc1ccc(C2CC(c3ccc(NS(C)(=O)=O)cc3)=NN2S(C)(=O)=O)cc1OC (stereo not drawn) | 102 ± 7.7
21 | CCOC(=O)C(C)Oc1cccc2c(=O)n(CC(=O)N3CCCCC3)ccc12 (stereo not drawn) | 117
22 | COc1ccc(C(=O)N2CCc3c(c(C(=O)NCc4ccc(F)cc4)nn3C)C2)cc1 | 103
23 | CC(=O)Nc1cccc(-c2nn3c(C)nnc3s2)c1 | 125
24 | Cc1cc(Cl)cc2sc(N(Cc3cccnc3)C(=O)C(C)C)nc12 | 65
25 | COc1cccc(NC(=O)c2ccc(S(=O)(=O)N3CCc4ccccc4C3)cc2)c1 | 125
26 | CC(=O)Nc1cccc(NC(=O)NC2CC(=O)N(c3ccc4c(c3)OCCO4)C2)c1 (stereo not drawn) | 119

Row | Compound | host macrophage viability [%]
27 | CCc1cc(C)cc(OC(=O)CSc2nc(-c3ccc(OC)cc3)nc3cc(=O)[nH]n23)c1 | 137
28 | O=C(Nc1nc2c(s1)COc1ccccc1-2)c1cccc(NS(=O)(=O)c2ccc(F)cc2)c1 | 120
29 | CNC(=O)c1ccsc1NC(=O)c1ccc(S(=O)(=O)N2CCCC2)cc1 | 114
30 | Nc1cc(OC(=O)c2ccc(F)cc2)nn1S(=O)(=O)c1ccccc1 | 107
31 | Cc1cc2oc(C(=O)NCc3ccc4c(c3)OCO4)c(C)c2cc1C | 119
32 | COCCn1ccc2c(OCC(=O)NCc3ccc(C)cc3)cccc2c1=O | 103
33 | COCCNC(=O)C1CCN(c2nc(-c3ccc(Cl)cc3)no2)CC1 | 104
34 | Cc1nc2cc(F)ccc2n1C1CCN(C(=O)Nc2ccccc2-c2ccccc2)CC1 | 110
35 | Cc1ccc(CN(C(=O)CC(C)C)c2nc3[nH]c(C)c(C)c(=O)n3n2)cc1 | 127
36 | CCS(=O)(=O)c1nc2ccccc2n1Cc1cccc2ccccc12 | 108
37 | Cc1ccc(C(=O)c2sc3nc4c(c(-c5ccco5)c3c2N)CCCCC4)cc1 | 112
38 | N#C/C(C(=O)NCc1ccccc1)=C1/N=C(NC(=O)c2cccnc2)c2ccccc21 | 131
39 | CCOc1ccc(NC(=O)c2oc3ccccc3c2NC(=O)CC2CCCC2)cc1 | 103 ± 2.8
40 | CCOC(=O)c1cccc(NC(=O)COc2ncnc3oc(C)c(C)c23)c1 | 131
41 | Cc1c(C(=O)NC(C(=O)OC(C)(C)C)C(C)C)sc2ncn(C)c(=O)c12 (stereo not drawn) | 99.8
42 | CCc1nnsc1C(=O)Nc1ccc(S(N)(=O)=O)cc1 | 108
43 | O=C(CS(=O)(=O)c1ccc(Cl)cc1)Nc1ccc2scnc2c1 | 121
44 | Cc1cc2cc(C#N)c(SCC(=O)OCc3ccccc3)nc2cc1C | 121
45 | O=C(CSc1nc2ccccc2nc1-c1ccccc1)Nc1ccc2c(c1)OCO2 | 102
46 | CCCCN(C)C(=O)c1ccc(-c2cccc(F)c2)nc1 | 104
47 | Cc1cc(NC(=O)CSc2nncc(=O)n2N)no1 | 117
48 | COc1ccccc1CNc1ncnc(N)c1[N+](=O)[O-] | 112
49 | COc1ccc(Cl)cc1NC(=O)CN1C(=O)[C@@H]2CCCN2C(=O)c2ccccc21 | 120
50 | CCOc1ccc2ncc(S(=O)(=O)c3ccccc3)c(Nc3ccc(OC)c(OC)c3)c2c1 | 106
51 | O=C(Nc1nnc(SCc2cccnc2)s1)C1CC(=O)N(c2ccccc2)C1 (stereo not drawn) | 127
52 | CC(=O)c1ccc(/N=c2\oc3ccccc3cc2C(N)=O)cc1 | 119 ± 3.5

4 records drawn at random from the list so far:
Row | Compound | host macrophage viability [%]
35 | Cc1ccc(CN(C(=O)CC(C)C)c2nc3[nH]c(C)c(C)c(=O)n3n2)cc1 | 127
29 | CNC(=O)c1ccsc1NC(=O)c1ccc(S(=O)(=O)N2CCCC2)cc1 | 114
48 | COc1ccccc1CNc1ncnc(N)c1[N+](=O)[O-] | 112
17 | O=C(Cn1c(=O)n(Cc2ccco2)c(=O)c2oc3ccccc3c21)Nc1ccc(Cl)cc1 | 116

(next part)

Row | Compound | host macrophage viability [%]
53 | CC1Cc2nc(SCC(=O)Nc3ccc4c(c3)OCO4)n(Cc3ccccc3)c(=O)c2S1 (stereo not drawn) | 109
54 | CCCn1c(=S)[nH]c2cc(C(=O)NCc3ccccc3)ccc2c1=O | 119
55 | Nc1cc(-c2ccccc2)nn1-c1nc(-c2cccc(O)c2)cs1 | 96.4
56 | Cc1cc(C)cc(NC(=O)C2CC3CCCN3C23C(=O)N(C)c2ccccc23)c1 (stereo not drawn) | 97.5
57 | COCCCn1c(SCc2nc(-c3ccccc3)no2)nc2cc3c(cc2c1=O)OCO3 | 127
58 | C=CCNc1nc2c(c(=O)n(C)c(=O)n2C)n1CC(=C)C | 129
59 | Oc1ncnc2c1c(-c1ccccc1)cn2-c1cccc(Cl)c1 | 122
60 | COc1ccc(C(=O)CSc2nc(C)cc(=O)[nH]2)cc1OC | 104 ± 15
61 | Cc1ccc(SCCCC(=O)Nc2nc3ccc4sc(C)nc4c3s2)cc1 | 131
62 | Cc1ccc(C(=O)NCCn2ccc(C)n2)c(N2CCN(CCO)CC2)n1 | 111
63 | COc1ccccc1/C=C/C1=NC(=C\c2coc3ccccc3c2=O)/C(=O)O1 | 113
64 | COc1ccccc1/N=c1\sc(C(C)=O)c(C)n1CCCN1CCOCC1 | 113
65 | COc1ccc(C2NCCc3cc(O)c(O)cc32)cc1OC (stereo not drawn) | 129
66 | O=C(NCc1ccccc1)N1CCCC1c1nc(Cc2ccc(F)cc2)n[nH]1 (stereo not drawn) | 126
67 | COc1cc(C2c3sc(=O)[nH]c3SC3C4CCC(C4)C23)ccc1O (stereo not drawn) | 109
68 | O=C(Nc1ccc(F)cc1F)c1nnc(C2CCN(S(=O)(=O)c3c[nH]cn3)CC2)s1 | 114
69 | O=C(CCCc1nnc2c(=O)n(-c3ccc(Cl)cc3)ccn12)N1CCN(C2CCCCC2)CC1 | 132
70 | O=C(CSC1=N/C(=C/c2ccc3c(c2)OCO3)C(=O)N1c1ccccc1)c1ccccc1 | 117 ± 3
71 | O=C(CCN1CCOCC1)N/N=C/c1ccc(OC(=O)c2cccnc2)cc1 | 110 ± 6.1
72 | CSc1cccc2sc(Nc3ccccc3Cl)nc12 | 121
73 | Cc1ccc(-n2ncc3c(=O)n(CC(=O)NCc4ccccc4)cnc32)cc1 | 112 ± 15
74 | O=C(CSc1nc2c(cnn2-c2ccccc2)c(=O)[nH]1)NCCc1ccccc1 | 123
75 | O=C(COc1ccc(Cl)cc1/C=C1\SC(=O)NC1=O)Nc1ccccc1 | 119
76 | Cc1ccc(-c2csc(-c3cccn3CC(=O)N3CCCCCC3)n2)cc1 | 91
77 | O=C(Nc1cccc2ccccc12)C1CCN(c2nnnn2-c2ccccc2)CC1 | 121
78 | COCCn1c(C)cc(O)c(C(c2ccncc2)N2CCC(C)CC2)c1=O (stereo not drawn) | 116

Row | Compound | host macrophage viability [%]
79 | CC(Oc1ccccc1)C(=O)N1CCC2(CC1)CC(=O)c1ccccc1O2 (stereo not drawn) | 106
80 | NC(=O)c1cc2c(ccc3ccccc32)o/c1=N\NC(=O)c1ccccc1 | 146
81 | Cc1cc(C)nc(SCc2cc(=O)c(OC(=O)c3ccc4c(c3)OCO4)co2)n1 | 120
82 | O=C1CC(c2cccc(F)c2)Sc2nc3ccccc3n21 (stereo not drawn) | 104
83 | N#CCn1ccn(-c2ccc3c(c2)OCO3)c(=O)c1=O | 127
84 | O=C(NCc1ccc2c(c1)OCO2)c1c(O)nc2sccn2c1=O | 108
85 | Cc1ccc(NC(=O)CN2CCC(C(=O)c3ccc4c(c3)OCCO4)CC2)cc1Cl | 123
86 | CC(C)c1ccc2nc(SCC(=O)NC3CCCC3)c(C#N)cc2c1 | 119
87 | O=C(NNc1nc2c(Cl)cccc2s1)c1cc(=O)c2ccccc2o1 | 107 ± 4.3
88 | CC(=O)c1c(C)oc2ccc(NS(=O)(=O)c3cc4c5c(cccc5c3)C(=O)NC4=O)cc12 | 110
89 | CCc1nc2ccc(NC(=O)C3(C)CC(=O)N=C4C=C(C)C=CN43)cc2[nH]1 (stereo not drawn) | 110
90 | CC/N=C1/SC(CC(=O)Nc2sc(CC)cc2C(=O)OCC)C(=O)N1CC (stereo not drawn) | 116
91 | COc1cccc(CNC(=O)CSc2nnc3c4ccccc4n(C)c3n2)c1 | 125
92 | CC(C)N1CCc2c(sc(NC(=O)c3ccc(Br)cc3)c2C(N)=O)C1 | 147
93 | Cc1oc(-c2ccc(F)cc2)nc1C(=O)Nc1cccc(-n2cnnc2)c1 | 122
94 | O=C(CSc1nc(O)c2ccccc2n1)N1CCOCC1 | 115
95 | COc1ccc(-n2c(=O)[nH]cc(C(=O)N3CCc4ccccc43)c2=O)cc1OC | 104.1 ± 0.28
96 | N#C/C(=C\Nc1cc([N+](=O)[O-])ccc1F)c1nc(-c2cccs2)cs1 | 112 ± 19
97 | COc1cccc(-c2cc3nc4c(c(O)n3n2)CCC4)c1 | 115
98 | CCCc1cc(=O)[nH]c(Nc2cc(Cl)ccc2O)n1 | 96
99 | Cc1ccc(-n2c(C)cs/c2=N\C(=S)Nc2ccccc2)cc1 | 119
100 | Cc1nn(C)c(C)c1NC(=O)CCn1c(-c2ccc(F)cc2)cc2cccnc21 | 115
101 | Cc1nn2c(N(C)C)cc(C(C)(C)C)nc2c1-c1ccc(F)cc1 | 123
102 | COc1cc(OC)c(NS(=O)(=O)c2cc(-c3cc(C(F)(F)F)on3)cs2)cc1Cl | 117
103 | Cc1ccc2cc(CN(C(=O)Nc3ccccc3F)C3CCCC3)c3nnnn3c2c1 | 109
